Laboratory results from publication PMC9227305 (Marine Drugs, 2022).

Assay: general procedure: solution-phase peptide synthesis; EEDQ
Conditions: cyclisation step

Substance	cyclisation yield	cyclisation yield (run 1)
3-Hydroxy-isoindolinone-cyclo-(Gly-Leu-N-Me-Leu-Leu-N-Me-Leu-Leu)	51%	
3-Hydroxy-isoindolinone-cyclo-Gly-Leu-Leu-Leu-N-Me-Leu-Leu		28%
3-Hydroxy-isoindolinone-cyclo-Gly-Leu-Leu-Leu-N-Me-Leu-Leu [5]		24%
3-Hydroxy-isoindolinone-cyclo-Gly-Leu-N-Me-Leu-Leu-Leu-Leu		23%
3-Hydroxy-isoindolinone-cyclo-Gly-Leu-N-Me-Leu-Leu-Leu-Leu [6]		25%
